Data: paper PMC6246747
No constants are given. Whether binding was seen depends on the method and setting. In cells and extracts the contact can be indirect. Some binding calls cover weakened binding; strength is not graded here.

Protein sequences, listed by entry. Tags and fused reporters are not part of them.
UniProt O35718: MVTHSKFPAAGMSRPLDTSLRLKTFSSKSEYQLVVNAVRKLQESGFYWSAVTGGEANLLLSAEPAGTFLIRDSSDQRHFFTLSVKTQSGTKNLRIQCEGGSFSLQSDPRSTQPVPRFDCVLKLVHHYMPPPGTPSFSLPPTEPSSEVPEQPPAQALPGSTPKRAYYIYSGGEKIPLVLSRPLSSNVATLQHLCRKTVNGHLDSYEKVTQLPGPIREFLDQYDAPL
UniProt P70340: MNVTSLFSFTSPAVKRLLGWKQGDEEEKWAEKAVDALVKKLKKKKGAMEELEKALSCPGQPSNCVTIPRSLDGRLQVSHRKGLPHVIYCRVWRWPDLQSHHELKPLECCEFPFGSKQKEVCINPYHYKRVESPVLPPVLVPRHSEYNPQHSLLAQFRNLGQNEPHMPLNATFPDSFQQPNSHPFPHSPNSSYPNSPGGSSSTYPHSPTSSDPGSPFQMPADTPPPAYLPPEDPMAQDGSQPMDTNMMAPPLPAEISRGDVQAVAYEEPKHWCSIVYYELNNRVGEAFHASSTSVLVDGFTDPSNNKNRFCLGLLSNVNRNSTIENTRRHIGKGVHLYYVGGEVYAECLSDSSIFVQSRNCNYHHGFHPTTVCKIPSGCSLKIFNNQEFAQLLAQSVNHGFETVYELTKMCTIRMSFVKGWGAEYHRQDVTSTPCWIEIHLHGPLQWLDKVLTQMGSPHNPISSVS

Target: myc-tagged SOCS3 (UniProt O35718)
Assay: co-IP; lysate (RIPA lysis buffer with protease and phosphatase inhibitors) of MC3T3/E1 cells stably overexpressing myc-tagged SOCS3; immunoprecipitated overnight at 4°C with anti-myc antibody; precipitates blotted for Smad1 and SOCS3

Substance: Smad1 (from UniProt P70340 1-465)
- binding: binds
